Record: PubChem BioAssay AID1904 (GNF, 2009)
The reagents shown are a selection, not the whole library. 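Lists only primary-screen hits; phenotype classes come from fitted traces, and the underlying luminescence values are not given.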 Reagents against one gene are numbered here. Reagent sequences are not shown.

Assay: 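Gene silencing that lengthens or shortens period, or boosts amplitude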 (follow-up of hits)
Cells: human U2OS osteosarcoma cells stably expressing a destabilised luciferase driven by the Bmal1 promoter
Reagent: siRNA pair against human genes, 12.5 nM (two siRNAs, 0.5 pmol each, per well)
Duration: about 3 days after transfection, then luminescence recorded for about 4 days
Measurement: 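Bmal1 reporter light output measured every 2 hours over several days, detrended, then fitted to give period and amplitude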
Active means: 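Active when retesting with individual siRNAs reproduced the period or amplitude change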
Calls: active = confirmed by single siRNAs; inactive = not confirmed

target gene	reagent no.	clock phenotype class	confirmed with single siRNAs	activity call
DKFZp547B1713	1	longer clock period; seen with two independent siRNA pairs for the gene	phenotype reproduced by individual siRNAs	active
DKFZp547B1713	2	longer clock period; seen with two independent siRNA pairs for the gene	phenotype reproduced by individual siRNAs	active
KIAA0882	1	shorter clock period; seen with one siRNA pair in duplicate wells	phenotype reproduced by individual siRNAs	active
KIAA0882	2	shorter clock period; seen with one siRNA pair in duplicate wells	phenotype reproduced by individual siRNAs	active
EMR2	1	longer clock period; seen with two independent siRNA pairs for the gene	phenotype reproduced by individual siRNAs	active
EMR2	2	longer clock period; seen with two independent siRNA pairs for the gene	phenotype reproduced by individual siRNAs	active
ABCC3	1	longer clock period; seen with two independent siRNA pairs for the gene	phenotype reproduced by individual siRNAs	active
ABCC3	2	longer clock period; seen with two independent siRNA pairs for the gene	phenotype reproduced by individual siRNAs	active
CDC2L1	1	longer clock period; seen with two independent siRNA pairs for the gene	phenotype reproduced by individual siRNAs	active
CDC2L1	2	longer clock period; seen with two independent siRNA pairs for the gene	phenotype reproduced by individual siRNAs	active
PDE1B	1	higher rhythm amplitude; seen with one siRNA pair in duplicate wells	phenotype reproduced by individual siRNAs	active
PDE1B	2	higher rhythm amplitude; seen with one siRNA pair in duplicate wells	phenotype reproduced by individual siRNAs	active
OPN1MW	1	longer clock period; seen with two independent siRNA pairs for the gene	phenotype reproduced by individual siRNAs	active
OPN1MW	2	longer clock period; seen with two independent siRNA pairs for the gene	phenotype reproduced by individual siRNAs	active
CGI-63	1	shorter clock period; seen with one siRNA pair in duplicate wells	not retested with individual siRNAs	
CGI-63	2	shorter clock period; seen with one siRNA pair in duplicate wells	not retested with individual siRNAs	
PKP1	1	longer clock period; seen with two independent siRNA pairs for the gene	phenotype reproduced by individual siRNAs	active
PKP1	2	longer clock period; seen with two independent siRNA pairs for the gene	phenotype reproduced by individual siRNAs	active
IKBKB	1	longer clock period; seen with two independent siRNA pairs for the gene	phenotype reproduced by individual siRNAs	active
IKBKB	2	longer clock period; seen with two independent siRNA pairs for the gene	phenotype reproduced by individual siRNAs	active
BDP1	1	longer clock period; seen with two independent siRNA pairs for the gene	phenotype reproduced by individual siRNAs	active
BDP1	2	longer clock period; seen with two independent siRNA pairs for the gene	phenotype reproduced by individual siRNAs	active
182-FIP	1	shorter clock period; seen with two independent siRNA pairs for the gene	phenotype reproduced by individual siRNAs	active
182-FIP	2	shorter clock period; seen with two independent siRNA pairs for the gene	phenotype reproduced by individual siRNAs	active
GMNN	1	higher rhythm amplitude; seen with one siRNA pair in duplicate wells	phenotype not reproduced by individual siRNAs	inconclusive
GMNN	2	higher rhythm amplitude; seen with one siRNA pair in duplicate wells	phenotype not reproduced by individual siRNAs	inconclusive
RETN	1	longer clock period; seen with two independent siRNA pairs for the gene	phenotype reproduced by individual siRNAs	active
RETN	2	longer clock period; seen with two independent siRNA pairs for the gene	phenotype reproduced by individual siRNAs	active
THRAP6	1	longer clock period; seen with two independent siRNA pairs for the gene	phenotype reproduced by individual siRNAs	active
THRAP6	2	longer clock period; seen with two independent siRNA pairs for the gene	phenotype reproduced by individual siRNAs	active
POP1	1	longer clock period; seen with two independent siRNA pairs for the gene	phenotype reproduced by individual siRNAs	active
POP1	2	longer clock period; seen with two independent siRNA pairs for the gene	phenotype reproduced by individual siRNAs	active
SOCS4	1	longer clock period; seen with two independent siRNA pairs for the gene	phenotype reproduced by individual siRNAs	active
SOCS4	2	longer clock period; seen with two independent siRNA pairs for the gene	phenotype reproduced by individual siRNAs	active
ZADH2	1	longer clock period; seen with two independent siRNA pairs for the gene	phenotype reproduced by individual siRNAs	active
ZADH2	2	longer clock period; seen with two independent siRNA pairs for the gene	phenotype reproduced by individual siRNAs	active
LOC388962	1	longer clock period; seen with two independent siRNA pairs for the gene	phenotype not reproduced by individual siRNAs	inconclusive
PTK2	1	longer clock period; seen with two independent siRNA pairs for the gene	phenotype reproduced by individual siRNAs	active
PTK2	2	longer clock period; seen with two independent siRNA pairs for the gene	phenotype reproduced by individual siRNAs	active
HRPT2	1	longer clock period; seen with two independent siRNA pairs for the gene	phenotype reproduced by individual siRNAs	active
HRPT2	2	longer clock period; seen with two independent siRNA pairs for the gene	phenotype reproduced by individual siRNAs	active
GPR124	1	longer clock period; seen with two independent siRNA pairs for the gene	phenotype reproduced by individual siRNAs	active
GPR124	2	longer clock period; seen with two independent siRNA pairs for the gene	phenotype reproduced by individual siRNAs	active
PEF	1	longer clock period; seen with two independent siRNA pairs for the gene	phenotype reproduced by individual siRNAs	active
PEF	2	longer clock period; seen with two independent siRNA pairs for the gene	phenotype reproduced by individual siRNAs	active
CLPX	1	shorter clock period; seen with two independent siRNA pairs for the gene	phenotype not reproduced by individual siRNAs	inconclusive
CLPX	2	shorter clock period; seen with two independent siRNA pairs for the gene	phenotype not reproduced by individual siRNAs	inconclusive
NFE2	1	longer clock period; seen with two independent siRNA pairs for the gene	phenotype reproduced by individual siRNAs	active
NFE2	2	longer clock period; seen with two independent siRNA pairs for the gene	phenotype reproduced by individual siRNAs	active
TREM2	1	higher rhythm amplitude; seen with one siRNA pair in duplicate wells	phenotype not reproduced by individual siRNAs	inconclusive
TREM2	2	higher rhythm amplitude; seen with one siRNA pair in duplicate wells	phenotype not reproduced by individual siRNAs	inconclusive
FBXO16	1	shorter clock period; seen with one siRNA pair in duplicate wells	phenotype not reproduced by individual siRNAs	inconclusive
FBXO16	2	shorter clock period; seen with one siRNA pair in duplicate wells	phenotype not reproduced by individual siRNAs	inconclusive

Individual results from the list.
Result for DKFZp547B1713 #2 in “confirmed with single siRNAs”: phenotype reproduced by individual siRNAs
PKP1 #2, activity call → active
Entry of GMNN #2 in “confirmed with single siRNAs”: phenotype not reproduced by individual siRNAs
For “clock phenotype class”, PTK2 #1 is entered as longer clock period; seen with two independent siRNA pairs for the gene
Result of 182-FIP #1 in “activity call”: active
Under “activity call”, ZADH2 #2 shows active

Continued:
target gene	reagent no.	clock phenotype class	confirmed with single siRNAs	activity call
TWIST2	1	longer clock period; seen with two independent siRNA pairs for the gene	phenotype not reproduced by individual siRNAs	inconclusive
TWIST2	2	longer clock period; seen with two independent siRNA pairs for the gene	phenotype not reproduced by individual siRNAs	inconclusive
UBQLN4	1	shorter clock period; seen with two independent siRNA pairs for the gene	phenotype reproduced by individual siRNAs	active
UBQLN4	2	shorter clock period; seen with two independent siRNA pairs for the gene	phenotype reproduced by individual siRNAs	active
FLJ14981	1	shorter clock period; seen with two independent siRNA pairs for the gene	phenotype reproduced by individual siRNAs	active
FLJ14981	2	shorter clock period; seen with two independent siRNA pairs for the gene	phenotype reproduced by individual siRNAs	active
KCNG2	1	longer clock period; seen with two independent siRNA pairs for the gene	phenotype reproduced by individual siRNAs	active
KCNG2	2	longer clock period; seen with two independent siRNA pairs for the gene	phenotype reproduced by individual siRNAs	active
NAGLU	1	longer clock period; seen with two independent siRNA pairs for the gene	phenotype reproduced by individual siRNAs	active
NAGLU	2	longer clock period; seen with two independent siRNA pairs for the gene	phenotype reproduced by individual siRNAs	active
WBP11	1	longer clock period; seen with two independent siRNA pairs for the gene	not retested with individual siRNAs	
WBP11	2	longer clock period; seen with two independent siRNA pairs for the gene	not retested with individual siRNAs	
GPR45	1	longer clock period; seen with two independent siRNA pairs for the gene	phenotype reproduced by individual siRNAs	active
GPR45	2	longer clock period; seen with two independent siRNA pairs for the gene	phenotype reproduced by individual siRNAs	active
NOC4	1	shorter clock period; seen with one siRNA pair in duplicate wells	phenotype reproduced by individual siRNAs	active
NOC4	2	shorter clock period; seen with one siRNA pair in duplicate wells	phenotype reproduced by individual siRNAs	active
PPM1B	1	shorter clock period; seen with two independent siRNA pairs for the gene	phenotype reproduced by individual siRNAs	active
PPM1B	2	shorter clock period; seen with two independent siRNA pairs for the gene	phenotype reproduced by individual siRNAs	active
DKFZp761L1417	1	shorter clock period; seen with two independent siRNA pairs for the gene	phenotype reproduced by individual siRNAs	active
DKFZp761L1417	2	shorter clock period; seen with two independent siRNA pairs for the gene	phenotype reproduced by individual siRNAs	active
JAZF1	1	longer clock period; seen with two independent siRNA pairs for the gene	phenotype reproduced by individual siRNAs	active
JAZF1	2	longer clock period; seen with two independent siRNA pairs for the gene	phenotype reproduced by individual siRNAs	active
SLC32A1	1	longer clock period; seen with two independent siRNA pairs for the gene	phenotype reproduced by individual siRNAs	active
SLC32A1	2	longer clock period; seen with two independent siRNA pairs for the gene	phenotype reproduced by individual siRNAs	active
SART3	1	longer clock period; seen with two independent siRNA pairs for the gene	phenotype reproduced by individual siRNAs	active
SART3	2	longer clock period; seen with two independent siRNA pairs for the gene	phenotype reproduced by individual siRNAs	active
URG4	1	higher rhythm amplitude; seen with one siRNA pair in duplicate wells	phenotype reproduced by individual siRNAs	active
URG4	2	higher rhythm amplitude; seen with one siRNA pair in duplicate wells	phenotype reproduced by individual siRNAs	active
FLJ45645	1	longer clock period; seen with two independent siRNA pairs for the gene	phenotype reproduced by individual siRNAs	active
MPG	1	shorter clock period; seen with one siRNA pair in duplicate wells	phenotype reproduced by individual siRNAs	active
MPG	2	shorter clock period; seen with one siRNA pair in duplicate wells	phenotype reproduced by individual siRNAs	active
POLR3F	1	longer clock period; seen with two independent siRNA pairs for the gene	phenotype reproduced by individual siRNAs	active
POLR3F	2	longer clock period; seen with two independent siRNA pairs for the gene	phenotype reproduced by individual siRNAs	active
tAKR	1	shorter clock period; seen with two independent siRNA pairs for the gene	phenotype reproduced by individual siRNAs	active
tAKR	2	shorter clock period; seen with two independent siRNA pairs for the gene	phenotype reproduced by individual siRNAs	active
PLEKHJ1	1	shorter clock period; seen with two independent siRNA pairs for the gene	phenotype reproduced by individual siRNAs	active
PLEKHJ1	2	shorter clock period; seen with two independent siRNA pairs for the gene	phenotype reproduced by individual siRNAs	active
FLJ20257	1	longer clock period; seen with two independent siRNA pairs for the gene	phenotype reproduced by individual siRNAs	active
FLJ20257	2	longer clock period; seen with two independent siRNA pairs for the gene	phenotype reproduced by individual siRNAs	active
MFNG	1	longer clock period; seen with two independent siRNA pairs for the gene	phenotype reproduced by individual siRNAs	active
MFNG	2	longer clock period; seen with two independent siRNA pairs for the gene	phenotype reproduced by individual siRNAs	active
FLJ10350	1	higher rhythm amplitude; seen with one siRNA pair in duplicate wells	phenotype reproduced by individual siRNAs	active
FLJ10350	2	higher rhythm amplitude; seen with one siRNA pair in duplicate wells	phenotype reproduced by individual siRNAs	active
SF1	1	longer clock period; seen with two independent siRNA pairs for the gene	phenotype reproduced by individual siRNAs	active
TDE2	1	longer clock period; seen with two independent siRNA pairs for the gene	phenotype reproduced by individual siRNAs	active
TDE2	2	longer clock period; seen with two independent siRNA pairs for the gene	phenotype reproduced by individual siRNAs	active
PIAS1	1	higher rhythm amplitude; seen with two independent siRNA pairs for the gene	phenotype reproduced by individual siRNAs	active
PIAS1	2	higher rhythm amplitude; seen with two independent siRNA pairs for the gene	phenotype reproduced by individual siRNAs	active
SLAMF7	1	shorter clock period; seen with one siRNA pair in duplicate wells	phenotype not reproduced by individual siRNAs	inconclusive
SLAMF7	2	shorter clock period; seen with one siRNA pair in duplicate wells	phenotype not reproduced by individual siRNAs	inconclusive
NOL6	1	longer clock period; seen with two independent siRNA pairs for the gene	phenotype reproduced by individual siRNAs	active
NOL6	2	longer clock period; seen with two independent siRNA pairs for the gene	phenotype reproduced by individual siRNAs	active
RBX1	1	longer clock period; seen with two independent siRNA pairs for the gene	phenotype reproduced by individual siRNAs	active
RBX1	2	longer clock period; seen with two independent siRNA pairs for the gene	phenotype reproduced by individual siRNAs	active
